Test results published in PMC3408474, “Constitutive Phosphorylation of Interferon Receptor A-Associated Signaling Proteins in Systemic Lupus Erythematosus” (PLoS ONE, 2012).
No constants are given. Whether binding was seen depends on the method and setting. Binding seen in cells or lysates may run through a third protein. Some entries that bind do so weakly or less than the wild type. Values belong to the molecule of their own block, whether it stands above or below them.

Protein sequences, listed by entry. Tags and fused reporters are not part of them. Residues count along the entry.
UniProt P17181, residues 28-557: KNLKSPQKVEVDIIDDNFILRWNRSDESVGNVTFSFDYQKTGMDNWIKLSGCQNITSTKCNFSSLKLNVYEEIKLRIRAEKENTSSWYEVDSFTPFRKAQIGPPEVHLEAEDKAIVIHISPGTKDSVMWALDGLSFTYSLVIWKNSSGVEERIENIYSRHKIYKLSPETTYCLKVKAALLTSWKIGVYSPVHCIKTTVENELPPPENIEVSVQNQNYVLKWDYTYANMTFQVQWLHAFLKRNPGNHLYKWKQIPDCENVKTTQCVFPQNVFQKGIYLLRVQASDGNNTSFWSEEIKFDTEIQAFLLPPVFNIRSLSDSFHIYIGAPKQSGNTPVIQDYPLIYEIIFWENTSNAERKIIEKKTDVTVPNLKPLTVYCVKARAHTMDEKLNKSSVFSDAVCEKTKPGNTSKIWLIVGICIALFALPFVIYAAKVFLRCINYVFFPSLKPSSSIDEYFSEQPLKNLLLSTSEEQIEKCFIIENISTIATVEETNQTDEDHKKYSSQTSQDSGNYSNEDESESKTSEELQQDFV
UniProt P52630: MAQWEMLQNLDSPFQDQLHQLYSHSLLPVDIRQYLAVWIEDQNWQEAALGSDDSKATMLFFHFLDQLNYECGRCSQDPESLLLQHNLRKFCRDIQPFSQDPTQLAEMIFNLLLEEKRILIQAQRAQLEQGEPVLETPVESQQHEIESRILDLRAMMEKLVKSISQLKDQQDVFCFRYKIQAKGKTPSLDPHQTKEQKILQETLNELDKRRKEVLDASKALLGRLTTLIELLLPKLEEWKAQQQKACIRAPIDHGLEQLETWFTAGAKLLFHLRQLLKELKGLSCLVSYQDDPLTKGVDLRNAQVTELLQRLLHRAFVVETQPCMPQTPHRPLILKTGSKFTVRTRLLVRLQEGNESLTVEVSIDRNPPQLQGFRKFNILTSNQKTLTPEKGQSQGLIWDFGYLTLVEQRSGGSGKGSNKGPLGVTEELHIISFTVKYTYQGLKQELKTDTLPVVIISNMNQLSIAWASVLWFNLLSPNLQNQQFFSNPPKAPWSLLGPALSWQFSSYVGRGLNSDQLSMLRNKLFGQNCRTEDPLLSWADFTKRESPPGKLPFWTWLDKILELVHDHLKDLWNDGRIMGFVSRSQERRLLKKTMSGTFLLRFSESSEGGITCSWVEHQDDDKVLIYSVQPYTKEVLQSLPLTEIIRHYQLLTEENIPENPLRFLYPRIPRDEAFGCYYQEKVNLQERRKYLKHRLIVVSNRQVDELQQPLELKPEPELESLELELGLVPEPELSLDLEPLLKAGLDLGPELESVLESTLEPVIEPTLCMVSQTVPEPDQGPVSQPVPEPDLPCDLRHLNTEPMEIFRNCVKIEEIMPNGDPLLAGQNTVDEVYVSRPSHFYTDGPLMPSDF
UniProt P29597: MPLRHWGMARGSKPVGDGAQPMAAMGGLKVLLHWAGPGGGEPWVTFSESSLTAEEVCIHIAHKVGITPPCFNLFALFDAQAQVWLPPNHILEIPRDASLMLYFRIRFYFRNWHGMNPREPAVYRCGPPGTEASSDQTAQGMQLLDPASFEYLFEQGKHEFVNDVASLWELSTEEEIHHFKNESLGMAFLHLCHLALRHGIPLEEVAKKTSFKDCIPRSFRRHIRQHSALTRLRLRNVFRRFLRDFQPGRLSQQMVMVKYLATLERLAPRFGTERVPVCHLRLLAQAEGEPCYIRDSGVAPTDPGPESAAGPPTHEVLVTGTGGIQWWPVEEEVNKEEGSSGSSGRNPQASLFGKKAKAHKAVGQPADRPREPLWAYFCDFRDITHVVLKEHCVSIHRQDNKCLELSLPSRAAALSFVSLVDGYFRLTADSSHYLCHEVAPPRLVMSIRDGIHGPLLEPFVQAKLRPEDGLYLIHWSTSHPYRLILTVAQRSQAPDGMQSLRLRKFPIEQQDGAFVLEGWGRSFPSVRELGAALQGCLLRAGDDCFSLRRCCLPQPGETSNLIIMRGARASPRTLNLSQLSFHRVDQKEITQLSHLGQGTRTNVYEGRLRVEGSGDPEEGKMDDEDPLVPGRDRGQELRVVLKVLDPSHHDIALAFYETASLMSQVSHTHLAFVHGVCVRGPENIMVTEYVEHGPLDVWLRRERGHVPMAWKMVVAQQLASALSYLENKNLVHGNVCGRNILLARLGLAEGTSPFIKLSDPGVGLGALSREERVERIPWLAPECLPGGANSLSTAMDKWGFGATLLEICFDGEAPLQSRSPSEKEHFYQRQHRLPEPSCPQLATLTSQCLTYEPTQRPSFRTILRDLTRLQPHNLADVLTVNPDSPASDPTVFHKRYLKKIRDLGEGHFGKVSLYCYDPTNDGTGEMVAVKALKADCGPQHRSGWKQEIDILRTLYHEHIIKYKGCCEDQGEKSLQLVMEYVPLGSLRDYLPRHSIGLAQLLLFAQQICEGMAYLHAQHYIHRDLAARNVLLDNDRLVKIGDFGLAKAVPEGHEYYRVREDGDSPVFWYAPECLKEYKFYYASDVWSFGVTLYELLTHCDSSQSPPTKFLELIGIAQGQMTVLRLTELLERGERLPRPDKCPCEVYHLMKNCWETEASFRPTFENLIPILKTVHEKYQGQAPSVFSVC

What was measured:
[1] = target: T1, IFNAR2 chain of the type I interferon receptor (IFNAR) (human (endogenous in PBMC)) (UniProt P48551); assay: co-IP; lysates (50 µg total protein) of PBMC from SLE patients or healthy controls, cultured in medium alone or with 50 U/ml IFNβ for 0, 30 min, 1 h and 4 h; incubated overnight at 4°C with mouse anti-IFNAR1 (protein A-Sepharose 4B) and/or rabbit anti-IFNAR2 (protein G-Sepharose 4B); blotted for SOCS1, STAT2, Jak1 and Tyk2
T1 sequence: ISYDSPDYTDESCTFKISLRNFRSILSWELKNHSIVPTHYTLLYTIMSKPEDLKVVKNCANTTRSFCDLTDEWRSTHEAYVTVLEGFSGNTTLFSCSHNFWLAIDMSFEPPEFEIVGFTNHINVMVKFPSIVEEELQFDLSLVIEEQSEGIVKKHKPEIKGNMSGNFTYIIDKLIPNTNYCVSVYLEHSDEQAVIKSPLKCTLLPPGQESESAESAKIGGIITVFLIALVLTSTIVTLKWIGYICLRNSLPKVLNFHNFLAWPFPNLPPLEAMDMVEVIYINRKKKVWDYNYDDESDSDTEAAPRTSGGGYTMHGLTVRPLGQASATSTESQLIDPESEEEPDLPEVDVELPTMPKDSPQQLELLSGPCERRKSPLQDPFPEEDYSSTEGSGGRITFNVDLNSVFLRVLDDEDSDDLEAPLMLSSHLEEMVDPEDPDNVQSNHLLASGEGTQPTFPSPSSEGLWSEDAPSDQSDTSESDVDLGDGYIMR

[2] = target: IFNAR1 chain of the type I interferon receptor (IFNAR) (human (endogenous in PBMC)) (UniProt P17181); assay: as above
[3] = target: T1, IFNAR2 chain of the type I interferon receptor (IFNAR) (human (endogenous in PBMC)); assay: co-IP; as a1, but only unstimulated PBMC (time 0, no IFNβ added); lysate precipitated with rabbit anti-IFNAR2 and protein G-Sepharose 4B, blotted for SOCS1

binding [1]: binds
Molecule: signal transduction and activator of transcription 2 (STAT2) (from UniProt P52630 1-851)

binding [2]: binds
Molecule: Janus kinase Tyk2 (from UniProt P29597 1-1187) (enzyme)

binding [2]: binds | binding [1]: binds
B1: suppressor of cytokine signaling 1 (SOCS1) (natural protein, human (endogenous in PBMC), UniProt O15524 1-211, looked up)
chain: MVAHNQVAADNAVSTAAEPRRRPEPSSSSSSSPAAPARPRPCPAVPAPAPGDTHFRTFRSHADYRRITRASALLDACGFYWGPLSVHGAHERLRAEPVGTFLVRDSRQRNCFFALSVKMASGPTSIRVHFQAGRFHLDGSRESFDCLFELLEHYVAAPRRMLGAPLRQRRVRPLQELCRQRIVATVGRENLARIPLNPVLRDYLSSFPFQI
notes: SOCS1, endogenous in human peripheral blood mononuclear cells; detected by blot with anti-SOCS1; source: endogenous, lysate of PBMC from SLE patients or healthy controls
binding [3]: no binding (condition: unstimulated PBMC, without IFNβ)
